# Measurements reported in PubChem BioAssay AID504834 (National Center for Advancing Translational Sciences (NCATS), 2011).
# Among all 320,000 compounds or so, about 22,000 (6.9%) were called active. Inconclusive results, whose numbers are uncertain, are shown with a selection of clear calls. Calls follow the shape of the dose curve; as a rule, active = well fitted inhibition curve with a large enough effect; inconclusive = small, poorly fitted or top-dose-only effect, or another doubt; inactive = no such curve, though single readings can be large or run the other way. Potencies of inconclusive entries are doubtful fits and often do not repeat.
# Assay: Primary qHTS for delayed death inhibitors of the malarial parasite plastid, 96 hour incubation
# Conditions: P. falciparum luciferase reporter growth; series mostly up to 28.7 µM
# Summary of the method: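 P. falciparum expressing integrated firefly luciferase grown in erythrocytes (2% hematocrit, 0.05% parasitemia final) with compounds for 96 hours at 37 C, 5% CO2. Growth inhibition read as loss of luminescence after adding luciferase detection reagent.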
# Potency is read from the fitted curve at half-maximal effect.
row,Compound,Potency
1,O=C(Nc1nnc(C(F)(F)F)s1)C1COc2ccccc2O1 (configuration not stated),inactive
2,Cc1cc(=O)oc2cc(NC(=S)NCc3ccccn3)ccc12,inactive
3,O=C(NN1C(=O)C2C3CCC(O3)C2C1=O)c1ccco1 (configuration not stated),"inconclusive: 16.5 µM [inhibitor, partial curve, poor fit]"
4,O=C(NCCOc1ccccc1)C1CCC(=O)N(Cc2ccc(Cl)cc2)C1 (configuration not stated),"inconclusive: 11.7 µM [inhibitor, partial curve]"
5,O=C(c1cc2nc(-c3ccccc3)cc(-c3ccccc3)n2n1)N1CCC2(CC1)OCCO2,inactive
6,CCN(c1ccc(OC)cc1)c1ncnc2nc[nH]c12,"inconclusive: 9.28 µM [inhibitor, partial curve]"
7,NS(=O)(=O)c1cccc(NC(=O)c2ccccc2NS(=O)(=O)c2ccc(F)cc2)c1,inactive
8,CC(C)c1ccc(CNC(=O)C(=O)NCC2CCCO2)cc1 (configuration not stated),"inconclusive: 4.65 µM [inhibitor, partial curve, poor fit]"
9,CN(CC(O)CON=C1c2ccccc2-c2ccccc21)S(=O)(=O)c1ccc(Br)cc1 (configuration not stated),"inconclusive: 1.65 µM [inhibitor, full curve]"
10,CC1Cc2ccccc2N1C(=O)CN1CCN(Cc2ccccc2)CC1 (configuration not stated),inactive
11,COC(=O)c1c(NC(=O)Cc2ccc(OC)c(S(=O)(=O)N3CCOCC3)c2)sc(C)c1C,"inconclusive: 18.5 µM [inhibitor, single point]"
12,O=[N+]([O-])c1ccc(Nc2c3ccccc3nc3ccccc23)cc1,inactive
13,CCOc1ccc(CNn2cnnc2)cc1,"inconclusive: 10.4 µM [inhibitor, partial curve]"
14,COc1ccc(N2C(=O)C(Cc3ccccc3)NC2=S)cc1 (configuration not stated),inactive
15,Cc1ccc(-c2csc3ncnc(NS(=O)(=O)c4ccc(Cl)cc4)c23)cc1,"inconclusive: 11.7 µM [inhibitor, single point]"
16,CCOc1ccc(S(=O)(=O)N2CCCCC2)cc1NC(=O)CN1C(=O)NC(CC)(c2ccccc2)C1=O (configuration not stated),active: 11.7 µM
17,COCCNCC(O)CON=C1c2ccccc2-c2ccccc21 (configuration not stated),"inconclusive: 0.828 µM [inhibitor, full curve, poor fit]"
18,CCOC(=O)c1ccc(NC(=O)c2ccc(CN3CCc4ccccc4C3)cc2)cc1,inactive
19,COC(=O)[C@H](CCSC)NC(=O)Nc1ccc(C(C)C)cc1,"inconclusive: 18.5 µM [inhibitor, single point]"
20,Clc1ccc(OCCOCCN2CCCCC2)c(Br)c1,"inconclusive: 0.165 µM [inhibitor, full curve, poor fit]"
21,O=C(CSc1ccc2nnc(-c3cccs3)n2n1)N1CCCC1,"inconclusive: 0.185 µM [inhibitor, full curve, poor fit]"
22,CCOc1ccc2ccccc2c1/C=N/NC(=O)c1ccc(C)nc1,inactive
23,N/C(=N\OC(=O)CCCc1ccccc1)c1cccnc1,inactive
24,CCc1cccc(C)c1NC(=O)CO/N=C(\N)CC(=O)NC1CCCCC1,"inconclusive: 11.7 µM [inhibitor, single point]"

row,Compound,Potency
1,Cc1cccnc1NC(=O)c1ccc(OCC2CCCO2)cc1 (configuration not stated),inactive
2,CCN(CC)C(=O)c1[nH]cnc1C(=O)Nc1cccc(C)c1,"inconclusive: 11.7 µM [inhibitor, single point]"
3,CCN(CC)C(=O)CC(c1cc(OC)c(OC)c(OC)c1)c1c(OC)cc(OC)c2ccc(=O)oc12 (configuration not stated),active: 11.7 µM
4,CC(=O)c1ccc(NC(=S)Nc2ccc(N3CCOCC3)cc2)cc1,inactive
5,Cc1ccc(C(=O)N(CN2CCCC2=O)c2ccccc2)cc1,"inconclusive: 18.5 µM [inhibitor, single point]"
6,COc1ccc(-c2nc(SCC(=O)NC3CCCCC3)n[nH]2)cc1,"inconclusive: 7.38 µM [inhibitor, partial curve]"
7,O=C1CNC(=O)/C(=C/c2cccs2)N1,inactive
8,CCOC(=O)C1(CCc2ccccc2)CCN(C(=O)C2=C(C)OCCO2)CC1,"inconclusive: 11.7 µM [inhibitor, single point]"
9,COc1ccc(/C=C(/NC(=O)c2ccccc2)C(=O)NC(Cc2c[nH]c3ccccc23)C(=O)O)cc1 (configuration not stated),"inconclusive: 18.5 µM [inhibitor, single point]"
10,O=C(NCc1ccccc1)C(=O)NCC(c1ccco1)N1CCN(c2ccccc2F)CC1 (configuration not stated),"inconclusive: 5.22 µM [inhibitor, single point]"
11,Cc1ccc(NC(=O)CSc2nnc(-c3ccccn3)n2N)c(Br)c1,inactive
12,O=C(COC(=O)c1cc([N+](=O)[O-])ccc1NCCO)Nc1cccc(S(=O)(=O)N2CCCC2)c1,"inconclusive: 10.4 µM [inhibitor, partial curve]"
13,CCC(C)Nc1nc(-c2c[nH]c3ccccc23)cs1 (configuration not stated),"inconclusive: 8.28 µM [inhibitor, partial curve, poor fit]"
14,Cc1ccc(NC(=S)N/N=C2/CCCc3c(C)cc(C)cc32)cc1,inactive
15,Cc1ccc(S(=O)(=O)N2CCN(C(=O)c3cc(=O)c4ccccc4o3)CC2)cc1,"inconclusive: 11.7 µM [inhibitor, single point]"
16,COc1cccc(NC(=O)Cc2csc(NC(=O)Nc3ccccc3OC)n2)c1,"inconclusive: 14.7 µM [inhibitor, partial curve, poor fit]"
17,Cc1nc(S(=O)(=O)N2CCN(C3c4ccccc4-c4ccccc43)CC2)cn1C,"inconclusive: 0.131 µM [inhibitor, full curve, poor fit]"
18,CCNC(=O)n1nccc1C(C)Oc1ccc(Cl)cc1 (configuration not stated),inactive
19,O=C(C(Cl)Cl)N1CCN(Cc2ccccc2)CC1,inactive
20,O=C1NCCCCC1NS(=O)(=O)c1ccccc1 (configuration not stated),inactive
21,CCN(CC(=O)NCc1ccc(Cl)cc1)C(=O)c1ccc2cc(OC)ccc2c1,"inconclusive: 18.5 µM [inhibitor, partial curve, poor fit]"
22,COc1ccccc1-c1sc2ccccc2c1-c1ccccc1OC,active: 2.62 µM
23,O=C(Nc1ccccc1C(=O)NCC1CCCO1)c1ccccc1F (configuration not stated),inactive
24,COc1ccc(S(=O)(=O)N(CC(=O)N/N=C/c2ccc(C(=O)O)cc2)Cc2ccccc2)cc1OC,inactive

row,Compound,Potency
1,CC(Oc1ccccc1)C(=O)N1CCC2(CC1)CC(=O)c1ccccc1O2 (configuration not stated),"inconclusive: 18.5 µM [inhibitor, single point]"
2,C(=N\Nc1nnnn1-c1ccccc1)/c1ccncc1,inactive
3,Cc1noc(C)c1C(=O)OCC(=O)Nc1ccc(S(N)(=O)=O)cc1,inactive
4,Cc1ccc(C2=CC(C)(c3ccc(C)cc3)Nc3nc(C(F)(F)F)nn32)cc1 (configuration not stated),"inconclusive: 18.5 µM [inhibitor, single point]"
5,Cc1ccc(C(=O)C(C)N(C(=O)c2ccc(Cl)cc2Cl)N2C(=O)CCCC2=O)cc1 (configuration not stated),active: 11.7 µM
6,Cc1cccc(NC(=O)NCCCCc2ccccc2)c1,"inconclusive: 9.28 µM [inhibitor, single point]"
7,O=S(=O)(NCC(c1ccco1)N1CCN(c2ccc(F)cc2)CC1)c1ccc(F)cc1 (configuration not stated),"inconclusive: 3.7 µM [inhibitor, partial curve, poor fit]"
8,CN1CCc2c(sc(NC(=O)c3ccc4ccccc4c3)c2C(N)=O)C1,"inconclusive: 13.1 µM [inhibitor, partial curve, poor fit]"
9,CCCN(C(=O)/C=C/c1nc2ccccc2s1)C1CCS(=O)(=O)C1 (configuration not stated),"inconclusive: 0.738 µM [inhibitor, full curve, poor fit]"
10,Cn1c(=N)n(CC(=O)c2ccc(Br)s2)c2ccccc21,inactive
11,O=C(C1c2ccccc2Oc2ccccc21)N1CCN(c2ccc(Cl)cc2)CC1,active: 2.08 µM
12,CN(C)S(=O)(=O)c1ccc(N2CCCC2)c(C(=O)N2CCN(S(=O)(=O)c3ccc(F)cc3)CC2)c1,"inconclusive: 11.7 µM [inhibitor, single point]"
13,Cc1cc2nc(NC3=NCN(CCN4CCOCC4)CN3)nc(C)c2cc1C,"inconclusive: 18.5 µM [inhibitor, single point]"
14,CN(C)S(=O)(=O)c1cccc(NC(=O)c2sccc2-c2ccccc2)c1,"inconclusive: 10.4 µM [inhibitor, partial curve]"
15,c1ccc(C2[C@H]3CN(CC4CCCCC4)[C@H](c4ccccc4)C34CC2(c2ccccc2)C4)cc1 (some centres not stated),"inconclusive: 1.17 µM [inhibitor, partial curve]"
16,Cn1c(NC(=O)C[n+]2cc(-c3ccc(Cl)c(Cl)c3)n3c2CCC3)cc(=O)n(C)c1=O,active: 0.828 µM
17,CCC(=O)Nc1ccc(-c2nc(-c3ccccc3)n(CC(=O)N3CCCCC3)n2)cc1,"inconclusive: 18.5 µM [inhibitor, single point]"
18,c1ccc2c(Cn3ccnc3)cccc2c1,"inconclusive: 18.5 µM [inhibitor, single point]"
19,O=c1[nH]n(-c2ncnc3c2cnn3-c2ccccc2)c(=O)c2ccccc12,inactive
20,COc1ccccc1N1CCN(Cc2cc(=O)c(OCC(=O)NC(C)C)co2)CC1,"inconclusive: 13.1 µM [inhibitor, partial curve]"
21,COc1cc(OC)c2c(c1)C(=O)c1cc(OC)cc(OC)c1C2=O,"inconclusive: 0.165 µM [inhibitor, full curve, poor fit]"
22,NC1=NC(=O)C(CC(=O)NCc2ccccc2)S1 (configuration not stated),"inconclusive: 10.4 µM [inhibitor, single point]"
23,Cc1cc(NC(=O)c2ccccc2C)no1,inactive
24,CCOC(=O)C(C)Oc1ccc(C2NC(=O)NC(C)=C2C(=O)Nc2ccccc2C)cc1 (configuration not stated),"inconclusive: 3.29 µM [inhibitor, single point]"

# Reformatted: entries from further up.
row	Compound	Potency
15	c1ccc(C2[C@H]3CN(CC4CCCCC4)[C@H](c4ccccc4)C34CC2(c2ccccc2)C4)cc1 (some centres not stated)	inconclusive: 1.17 µM [inhibitor, partial curve]
16	Cn1c(NC(=O)C[n+]2cc(-c3ccc(Cl)c(Cl)c3)n3c2CCC3)cc(=O)n(C)c1=O	active: 0.828 µM
17	CCC(=O)Nc1ccc(-c2nc(-c3ccccc3)n(CC(=O)N3CCCCC3)n2)cc1	inconclusive: 18.5 µM [inhibitor, single point]
18	c1ccc2c(Cn3ccnc3)cccc2c1	inconclusive: 18.5 µM [inhibitor, single point]
19	O=c1[nH]n(-c2ncnc3c2cnn3-c2ccccc2)c(=O)c2ccccc12	inactive
20	COc1ccccc1N1CCN(Cc2cc(=O)c(OCC(=O)NC(C)C)co2)CC1	inconclusive: 13.1 µM [inhibitor, partial curve]
